Measured values taken from paper PMC11868536.
Results are given in words; binding and its absence hold for the method and conditions named. Binding seen in cells or lysates may run through a third protein. Some entries that bind do so weakly or less than the wild type.

Protein sequences, listed by entry. Tags and fused reporters are not part of them.
UniProt Q9NS91: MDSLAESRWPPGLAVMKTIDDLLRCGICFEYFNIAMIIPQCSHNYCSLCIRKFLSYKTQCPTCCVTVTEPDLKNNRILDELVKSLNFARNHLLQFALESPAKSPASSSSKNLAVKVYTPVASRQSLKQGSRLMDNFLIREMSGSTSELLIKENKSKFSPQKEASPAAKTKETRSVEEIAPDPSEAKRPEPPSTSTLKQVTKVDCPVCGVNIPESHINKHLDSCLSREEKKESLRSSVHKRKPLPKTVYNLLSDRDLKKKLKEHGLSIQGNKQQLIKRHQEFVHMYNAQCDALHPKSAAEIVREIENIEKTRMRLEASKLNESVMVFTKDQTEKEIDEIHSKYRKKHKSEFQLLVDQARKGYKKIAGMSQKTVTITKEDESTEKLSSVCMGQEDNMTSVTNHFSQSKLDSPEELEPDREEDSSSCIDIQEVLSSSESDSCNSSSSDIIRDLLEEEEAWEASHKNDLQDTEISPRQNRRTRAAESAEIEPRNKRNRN

Molecular target: T1, DNA Polymerase η (human (endogenous in OVCAR3)) (UniProt Q9Y253)
T1 sequence: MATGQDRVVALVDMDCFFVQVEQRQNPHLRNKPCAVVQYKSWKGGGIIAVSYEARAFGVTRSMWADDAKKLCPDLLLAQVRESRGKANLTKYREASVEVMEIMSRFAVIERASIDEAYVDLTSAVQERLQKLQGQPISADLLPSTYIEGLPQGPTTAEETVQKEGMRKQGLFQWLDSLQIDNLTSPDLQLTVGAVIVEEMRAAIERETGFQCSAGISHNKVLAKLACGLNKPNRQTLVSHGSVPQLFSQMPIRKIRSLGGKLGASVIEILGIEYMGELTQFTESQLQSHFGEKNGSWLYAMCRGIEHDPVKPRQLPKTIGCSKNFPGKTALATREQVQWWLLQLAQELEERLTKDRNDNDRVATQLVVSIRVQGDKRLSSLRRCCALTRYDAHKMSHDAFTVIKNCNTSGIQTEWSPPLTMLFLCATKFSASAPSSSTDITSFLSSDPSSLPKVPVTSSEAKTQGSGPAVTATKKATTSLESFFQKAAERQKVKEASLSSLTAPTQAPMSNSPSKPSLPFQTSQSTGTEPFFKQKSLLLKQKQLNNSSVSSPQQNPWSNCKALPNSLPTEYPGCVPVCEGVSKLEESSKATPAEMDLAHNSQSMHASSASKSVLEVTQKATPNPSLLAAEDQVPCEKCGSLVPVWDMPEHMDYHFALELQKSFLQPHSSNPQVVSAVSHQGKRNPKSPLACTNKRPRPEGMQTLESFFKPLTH
Assay: co-IP; OVCAR3 whole cell lysate in RIPA buffer, pre-cleared with protein A agarose; Polη-specific antibody overnight at 4 °C, captured on protein A beads; western blot

Substance: RAD18 (from UniProt Q9NS91 1-495)
- binding: binds
